Measurements as given in PubChem BioAssay AID540276 (National Center for Advancing Translational Sciences (NCATS), 2011).
Screen size: about 300,000 compounds; about 5,400 (1.8%) were called active. Inconclusive means that the source gave no clear call. Such entries were picked first, then a sample of the others. Calls come from the whole dose curve; tested in HEK293 cells. Potencies beside an inconclusive call are fits to weak or partial responses and may not hold up.

Experiment: qHTS for inhibitors of binding or entry into cells for Marburg Virus
Settings: Marburg virus pseudotyped entry inhibition, cell reporter; activity change, negative = inhibition: at 37.8 µM (top of the series) unless noted
% is set by controls: 0 for no effect and ±100 for the full control effect; potency is the fitted concentration of half-maximal effect.

Row | SMILES | activity change, negative = inhibition | Potency
1 | CCn1c2ccccc2c2cc(NC(=O)c3ccco3)ccc21 | inactive: -13.8% | –
2 | COc1ccccc1C(=O)NC(=S)NNC(=O)c1sc2ccccc2c1Cl | – | inconclusive: 2.24 µM [inhibitor, partial curve, poor fit]
3 | CC(C)Oc1nc(-c2ccccc2Cl)nc2ccccc12 | – | inconclusive: 35.5 µM [inhibitor, single point]
4 | CCCn1c(=O)c(C#N)cn(C2CC2)c1=O | – | inconclusive: 4.47 µM [inhibitor, single point]
5 | CSc1n[nH]c(NC(=O)c2c(-c3c(Cl)cccc3Cl)noc2C)n1 | – | inconclusive: 0.316 µM [inhibitor, partial curve, poor fit]
6 | COCCN(C(=S)Nc1ccc(OC)c(Cl)c1)C1CCN(C(C)C)CC1 | – | inconclusive: 11.2 µM [inhibitor, single point]
7 | Cc1cc(=O)n(-c2ccccc2)n1-c1ccccc1 | – | inconclusive: 0.501 µM [inhibitor, full curve]
8 | COCCN(C(=O)COC(=O)C(c1ccccc1)c1ccccc1)c1c(N)n(Cc2ccccc2)c(=O)[nH]c1=O | inactive: -19.2% | –
9 | Cc1cccc(S(=O)(=O)NCCc2ccccc2)c1 | – | inconclusive: 0.562 µM [inhibitor, full curve, poor fit]
10 | CCN1C(=O)/C(=C\N2CCCCCC2)SC1=S | inactive: 0.703% | –
11 | COc1ccc(S(=O)(=O)CCc2nnc(NC(C)=O)s2)cc1 | inactive: 10.4% [at 46.1 µM] | –
12 | CCOc1cc(N2CCOCC2)c(OCC)cc1NC(=O)Cc1cn2ccsc2n1 | – | inconclusive: 14.1 µM [inhibitor, single point]
13 | CC(=O)C1=C(NC(=O)c2ccccc2F)C[C@@H]2[C@H]1C2(C)C | – | inconclusive: 0.794 µM [inhibitor, full curve, poor fit]
14 | CCC(=O)Nc1ccc(C(=O)OCc2ccccc2Cl)cc1 | inactive: -17.6% | –
15 | O=C(Nc1ccc(CN2CCCCC2)cc1)c1c(F)c(F)c(F)c(F)c1F | – | inconclusive: 15.8 µM [inhibitor, partial curve, poor fit]
16 | Cc1ccc(C2(C)NC(=O)N(CC(=O)Nc3cc(S(=O)(=O)N4CCCCC4)ccc3OC(C)C)C2=O)cc1 (stereo not drawn) | – | inconclusive: 11.2 µM [inhibitor, single point]
17 | Nc1c(C(=O)Nc2ccc3c(c2)OCCO3)nnn1Cc1cccc(Cl)c1 | – | inconclusive: 7.94 µM [inhibitor, full curve, poor fit]
18 | O=C(CSc1nc2ccccc2s1)Nc1cc(S(=O)(=O)N2CCOCC2)ccc1O | inactive: -0.0654% | –
19 | CCOc1ccc(-c2nnc(SCC(=O)Nc3ccc(C)cc3C)o2)cc1 | inactive: -16.4% [at 46.1 µM] | –
20 | Cc1ccc(S(=O)(=O)c2c(CO)c(-c3ccccc3)nn2C)cc1 | – | inconclusive: 5.01 µM [inhibitor, full curve, poor fit]
21 | COc1cc(CNCCCCO)ccc1OCc1ccccc1F | – | inconclusive: 11.2 µM [inhibitor, single point]
22 | ClC(CCN1CCN(Cc2ccccc2)CC1)c1ccccc1 (stereo not drawn) | – | inconclusive: 0.282 µM [activator, full curve]
23 | CCOC(=O)Cc1csc(NC(=O)c2ccco2)n1 | – | inconclusive: 16.4 µM [activator, partial curve]

Row | SMILES | activity change, negative = inhibition | Potency
24 | O=C(NCC(c1ccco1)N1CCCCC1)c1ccc(COc2ccccc2)cc1 (stereo not drawn) | – | inconclusive: 35.5 µM [inhibitor, single point]
25 | COc1ccc(N=C2CCS(=O)(=O)c3sccc32)cc1 | – | inconclusive: 6.31 µM [activator, single point]
26 | COc1ccccc1CNC(=O)Cn1nc(C)n2cccc2c1=O | – | inconclusive: 7.08 µM [inhibitor, full curve, poor fit]
27 | COc1cc(C(=O)N(Cc2ccccc2)c2cccc(C)c2)ccc1OC(F)F | – | inconclusive: 22.4 µM [inhibitor, single point]
28 | COc1ccccc1C1CCN(Cc2cccc3ccccc23)CC1 | – | inconclusive: 15.8 µM [inhibitor, single point]
29 | NS(=O)(=O)c1ccc(CNC(=O)c2cccc(S(=O)(=O)N3CCc4ccccc43)c2)cc1 | – | inconclusive: 12.6 µM [inhibitor, single point]
30 | COc1ccc(C(=O)NCC(c2ccc(Cl)cc2)N2CCCCC2)cc1 (stereo not drawn) | – | inconclusive: 14.1 µM [inhibitor, single point]
31 | CCN=c1scc(-c2cccs2)n1/N=C/c1cc(OC)ccc1O | – | inconclusive: 2.31 µM [activator, full curve]
32 | COc1ccc(C(=O)c2cnc(/N=C/N(C)C)s2)cc1 | inactive: -0.0544% | –
33 | Cc1ccc(OCCCCn2c(CO)nc3ccccc32)cc1 | – | inconclusive: 11.2 µM [inhibitor, partial curve, poor fit]
34 | CCC(=O)N1C2=C(c3ccccc3[C@@H]1CC(=O)Nc1ccc3ccccc3c1)[C@H]1C(=O)N(c3ccccc3)C(=O)[C@@H]1[C@H](C)C2 | – | inconclusive: 0.0596 µM [inhibitor, partial curve, poor fit]
35 | O=C(Cn1nc(Cc2cccnc2)c2ccccc2c1=O)Nc1ccc(F)c(Cl)c1 | – | inconclusive: 35.5 µM [inhibitor, single point]
36 | CC(C)NS(=O)(=O)c1ccc(NC(=O)Cc2cccs2)cc1 | – | inconclusive: 11.2 µM [activator, partial curve, poor fit]
37 | CCC(Sc1nnc2c3ccccc3n(CC)c2n1)C(=O)Nc1ccc(NC(C)=O)cc1 (stereo not drawn) | – | active: 3.55 µM
38 | Cc1ccsc1/C=N/N1CCN(Cc2ccccc2)CC1 | – | inconclusive: 5.62 µM [activator, single point]
39 | COc1ccc(-n2nc(C(=O)NCCc3ccc(OC)c(OC)c3)c3c4ccccc4n(C)c3c2=O)cc1 | inactive: -1.32% [at 46.1 µM] | –
40 | COc1cccc(C(CNC(=O)C(c2ccccc2)c2ccccc2)N(C)C)c1 (stereo not drawn) | – | inconclusive: 17.8 µM [inhibitor, single point]
41 | CN(CC(=O)Nc1cccc(F)c1)C(=O)c1ccc2c(c1)S(=O)(=O)N=C1CCCCCN12 | – | inconclusive: 2.82 µM [activator, partial curve, poor fit]
42 | CN1CCN(NC(=O)C23CC4CC(CC(C4)C2)C3)CC1 | inactive: -0.379% | –
43 | O=C1C(Cl)=C(Nc2ccccc2)C(=O)c2ccccc21 | – | inconclusive: 11.2 µM [inhibitor, partial curve, poor fit]
44 | Nc1nc(Nc2ccccc2F)nc(NC2CCCCC2)c1[N+](=O)[O-] | – | inconclusive: 35.5 µM [inhibitor, single point]
45 | Cc1[nH]c2ccccc2c1/C=N/Nc1nc(Nc2ccccc2)nc(N2CCOCC2)n1 | – | active: 0.326 µM
46 | CCOC(=O)N1CCN(C(=O)CSCC(=O)Nc2nc(-c3ccc(OC)cc3)cs2)CC1 | – | inconclusive: 20.6 µM [inhibitor, single point]

Among those listed so far, 4 contain an aryl thioether with sulfur outside any ring:
Row | SMILES | activity change, negative = inhibition | Potency
5 | CSc1n[nH]c(NC(=O)c2c(-c3c(Cl)cccc3Cl)noc2C)n1 | – | inconclusive: 0.316 µM [inhibitor, partial curve, poor fit]
18 | O=C(CSc1nc2ccccc2s1)Nc1cc(S(=O)(=O)N2CCOCC2)ccc1O | inactive: -0.0654% | –
19 | CCOc1ccc(-c2nnc(SCC(=O)Nc3ccc(C)cc3C)o2)cc1 | inactive: -16.4% [at 46.1 µM] | –
37 | CCC(Sc1nnc2c3ccccc3n(CC)c2n1)C(=O)Nc1ccc(NC(C)=O)cc1 (stereo not drawn) | – | active: 3.55 µM

Next records follow:

Row | SMILES | activity change, negative = inhibition | Potency
47 | N#C/C(=C\c1cccc2ccccc12)c1nn(-c2ccccc2)c(N)c1C#N | – | inconclusive: 0.58 µM [inhibitor, partial curve]
48 | CN1CCC(Oc2ccccc2Sc2ccc(C(F)(F)F)cc2)CC1 | – | inconclusive: 18.4 µM [inhibitor, partial curve, poor fit]
49 | C=CCN=C1NC(c2cccc(F)c2)C(C(=O)OC)=C(C)N1Cc1ccccc1 (stereo not drawn) | – | inconclusive: 7.5 µM [inhibitor, single point]
50 | NC(=O)C1(Nc2ccc(-c3ccc(Br)cc3)cc2)CCCC1 | – | inconclusive: 0.112 µM [activator, full curve, poor fit]
51 | O=C(N/N=C\CCc1ccccc1)c1ccco1 | – | inconclusive: 5.62 µM [activator, single point]
52 | NS(=O)(=O)c1cccc(-n2cnnn2)c1 | inactive: -9.27% [at 46.1 µM] | –
53 | CCCC(=O)Nc1nnc(SCC(=O)Nc2ccc3c(c2)OCO3)s1 | – | inconclusive: 0.794 µM [activator, full curve, poor fit]
54 | CCCCNC(=O)N1CCCN(c2ccc(C#N)cn2)CC1 | inactive: -4.84% | –
55 | CCCOc1ccc(-c2c(C(=O)N/N=C/c3ccco3)nnn2-c2nonc2N)cc1 | – | inconclusive: 35.5 µM [inhibitor, single point]
56 | CC1(C)COC(/C=C/c2cccc([N+](=O)[O-])c2)=N1 | – | inconclusive: 2.82 µM [inhibitor, full curve]
57 | O=C(CC1CC2CCC1C2)NCc1cccs1 (stereo not drawn) | inactive: -0.732% | –
58 | CCn1c2ccccc2c2cc(/C=N/NC(=O)c3ccccc3)ccc21 | – | active: 11.6 µM
59 | O=c1[nH]c(C2CCCN(S(=O)(=O)c3ccccc3F)C2)nc2c1nnn2Cc1ccccc1Cl (stereo not drawn) | – | inconclusive: 35.5 µM [inhibitor, single point]
60 | Cc1ccccc1N(CC(=O)Nc1ccc(S(=O)(=O)N2CCOCC2)cc1)S(C)(=O)=O | – | inconclusive: 2.82 µM [activator, partial curve, poor fit]
61 | O=C(Nc1onc2c1CCCC2)c1ccccc1 | – | inconclusive: 0.316 µM [activator, full curve, poor fit]
62 | O=C(CN1C(=O)NC2(CCCC2)C1=O)Nc1cc(Cl)ccc1N1CCCCC1 | – | inconclusive: 35.5 µM [activator, single point]
63 | CCOc1oc(-c2ccc(OC)cc2)nc1C(F)(F)F | inactive: 18.6% | –
64 | O=C(Nc1ccc(S(=O)(=O)N2CCOCC2)cc1)c1ccc([N+](=O)[O-])s1 | inactive: -5.73% [at 46.1 µM] | –
65 | Cc1cc(SCC(=O)OCC(=O)NC(C)c2ccccc2)c(C)cc1Br (stereo not drawn) | inactive: -0.315% | –
66 | CCCCCCCC1Cc2ccccc2C(C(C(=O)OC)C(=O)OC)N1C(=O)OC (stereo not drawn) | – | inactive
67 | Cc1cccc(C)c1NC(=O)C(Cl)=C(Cl)Cl | – | inconclusive: 15.8 µM [inhibitor, single point]
68 | COCCNC(=O)C1CCN(C(=O)C2CC(=O)N(c3ccc(C)cc3)C2)CC1 (stereo not drawn) | inconclusive: 17.2% [activator] [at 46.1 µM] | –

As entered above.
C=CCN=C1NC(c2cccc(F)c2)C(C(=O)OC)=C(C)N1Cc1ccccc1 (stereo not drawn) | Potency: inconclusive: 7.5 µM [inhibitor, single point]
Cc1cc(SCC(=O)OCC(=O)NC(C)c2ccccc2)c(C)cc1Br (stereo not drawn) | activity change, negative = inhibition: inactive: -0.315%
